Laboratory results published in the supplement of paper PMC4604168 (melanoma cell lines).
The other results are listed elsewhere or left out. Many values rest on one well or one pass, so single values are uncertain.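 The apoptosis fraction was the count of cleaved-PARP antibody-stained nuclei relative to all DNA-stained nuclei, imaged in 1,536-well plates. Screening doses were set so most cells survived, and baseline and induced cleaved-PARP levels vary greatly across cell lines.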

How the values were obtained:
Assay in all cases: cleaved PARP positive nuclei fraction relative to DMSO control; melanoma cells; higher = more apoptosis
Conditions in all cases: library dose: low library concentration; 72 h
[1] = tested on: WM115
[2] = tested on: WM1716
[3] = tested on: WM1745
[4] = tested on: WM3526
[5] = tested on: WM3619
[6] = tested on: WM451Lu

Row | Compound | cleaved PARP positive nuclei fraction [1] [%] | cleaved PARP positive nuclei fraction [2] [%] | cleaved PARP positive nuclei fraction [3] [%] | cleaved PARP positive nuclei fraction [4] [%] | cleaved PARP positive nuclei fraction [5] [%] | cleaved PARP positive nuclei fraction [6] [%]
1 | CO[C@@H]1[C@H](N(C)C(=O)c2ccccc2)C[C@H]2O[C@]1(C)n1c3ccccc3c3c4c(c5c6ccccc6n2c5c31)C(=O)NC4 [Midostaurin] + Cn1cncc1[C@@](N)(c1ccc(Cl)cc1)c1ccc2c(c1)c(-c1cccc(Cl)c1)cc(=O)n2C [tipifarnib] (first compound 0.08 µM, partner dose 0.01 µM) | 230 | 118 | 103 | 218 | 94.3 | 71.8
2 | OCCn1cc(-c2cnc3nnn(Cc4ccc5ncccc5c4)c3n2)cn1 + O=S(=O)(c1ccccc1)N(CC(F)(F)F)c1ccc(C(O)(C(F)(F)F)C(F)(F)F)cc1 [T0901317] (first compound 1 µM, partner dose 1.4 µM) | 143 | 18.7 | 116 | 62.1 | 196 | 113
3 | CC(=O)c1c(C)c2cnc(Nc3ccc(N4CCNCC4)cn3)nc2n(C2CCCC2)c1=O [palbociclib] + CCN(CC)CCCCNc1ncc2cc(-c3cc(OC)cc(OC)c3)c(NC(=O)NC(C)(C)C)nc2n1 [PD173074] (first compound 0.04 µM, partner dose 0.1 µM) | 131 | 148 | 124 | 110 | 134 | 59.1
4 | COCC[n+]1c2c(n(Cc3cnccn3)c1C)C(=O)c1ccccc1C2=O + COc1ccc2c(c1)CCC1C2CCC2(C)C(NCCCCCCN3C(=O)C=CC3=O)CCC12 [U73122] (first compound 0.0004 µM, partner dose 0.4 µM) | 40.9 | 102 | 90.5 | 68.1 | 73.8 | 72.4
5 | Cc1ccc(NC(=O)c2cccc(N(C)C)c2)cc1NC(=O)c1ccc(O)cc1 + OCCn1cc(-c2cnc3nnn(Cc4ccc5ncccc5c4)c3n2)cn1 [PF04217903] (first compound 2 µM, partner dose 1 µM) | 72.8 | 119 | 112 | 183 | 90 | 338
6 | Cc1ccc(NC(=O)c2cccc(N(C)C)c2)cc1NC(=O)c1ccc(O)cc1 + Cc1cc([N+](=O)[O-])ccc1NS(=O)(=O)c1cc(Cl)ccc1Cl [FH535] (first compound 2 µM, partner dose 1 µM) | 93.2 | 52.4 | 87.7 | 70.6 | 94.4 | 78.9
7 | COCC[n+]1c2c(n(Cc3cnccn3)c1C)C(=O)c1ccccc1C2=O + CC(C)CCN1c2nc(Nc3cc(F)c(O)c(F)c3)ncc2N(C)C(=O)C1C [BID1870] (first compound 0.0004 µM, partner dose 0.2 µM) | 64.6 | 133 | 121 | 75.1 | 164 | 95.1
8 | C=CCNC1=C2C[C@@H](C)C[C@H](OC)[C@H](O)[C@@H](C)/C=C(\C)[C@H](OC(N)=O)[C@@H](OC)/C=C\C=C(/C)C(=O)NC(=CC1=O)C2=O [Tanespimycin] + O=C(O)c1ccc(-c2c[nH]c3ncc(-c4ccccc4)cc23)cc1C1CCCC1 [GSK650394] (first compound 0.002 µM, partner dose 0.16 µM) | 73.5 | 157 | 109 | 62.7 | 147 | 44.4
9 | C=CCn1c(=O)c2cnc(Nc3ccc(N4CCN(C)CC4)cc3)nc2n1-c1cccc(C(C)(C)O)n1 + COC(=O)c1sccc1S(=O)(=O)Nc1ccc(Nc2ccccc2)cc1OC [GSK0660] (first compound 0.02 µM, partner dose 1 µM) | 157 | 96.3 | 107 | 28.7 | 110 | 63.6
10 | C=CCNC1=C2C[C@@H](C)C[C@H](OC)[C@H](O)[C@@H](C)/C=C(\C)[C@H](OC(N)=O)[C@@H](OC)/C=C\C=C(/C)C(=O)NC(=CC1=O)C2=O [Tanespimycin] + CCc1ccc(CCOc2ccc(CC3SC(=O)NC3=O)cc2)nc1 [pioglitazone] (first compound 0.002 µM, partner dose 2 µM) | 57.4 | 228 | 89.8 | 73.5 | 92.6 | 188
11 | OCc1c[nH]c2ccccc12 [Indole-3-carbinol] + CCN(CC)CCCCNc1ncc2cc(-c3cc(OC)cc(OC)c3)c(NC(=O)NC(C)(C)C)nc2n1 [PD173074] (first compound 0.8 µM, partner dose 0.1 µM) | 311 | 120 | 182 | 77.9 | 84.9 | 146
12 | CO[C@@H]1[C@H](N(C)C(=O)c2ccccc2)C[C@H]2O[C@]1(C)n1c3ccccc3c3c4c(c5c6ccccc6n2c5c31)C(=O)NC4 [Midostaurin] + Cn1cc(/C=C2\C(=O)Nc3cccnc32)c2ccccc21 [GW441756] (first compound 0.08 µM, partner dose 0.4 µM) | 97.2 | 166 | 128 | 60.4 | 89.4 | 120
13 | Cc1cc(N2CCOCC2)cc2[nH]c(-c3c(NC[C@@H](O)c4cccc(Cl)c4)cc[nH]c3=O)nc12 + COc1cc2c(Oc3ccc4[nH]c(C)cc4c3F)ncnc2cc1OCCCN1CCCC1 [cediranib] (first compound 0.2 µM, partner dose 0.4 µM) | 72.6 | 87.2 | 125 | 68.4 | 68.1 | 43.7
14 | Clc1ccc(Nc2nnc(Cc3ccncc3)c3ccccc23)cc1 [vatalanib] + O=S(=O)(c1ccccc1)N(CC(F)(F)F)c1ccc(C(O)(C(F)(F)F)C(F)(F)F)cc1 [T0901317] (first compound 2 µM, partner dose 1.4 µM) | 183 | 60.9 | 132 | 62 | 83.1 | 47.5
15 | C=CCn1c(=O)c2cnc(Nc3ccc(N4CCN(C)CC4)cc3)nc2n1-c1cccc(C(C)(C)O)n1 + CC(C)CCN1c2nc(Nc3cc(F)c(O)c(F)c3)ncc2N(C)C(=O)C1C [BID1870] (first compound 0.02 µM, partner dose 0.2 µM) | 76.2 | 168 | 122 | 85.9 | 101 | 68.8
16 | O=C(CCCCCCC(=O)Nc1ccccc1)NO [vorinostat] + COc1cc2ncnc(Nc3ccc(Oc4ccccc4)cc3)c2cc1OC [SrcI1] (first compound 0.08 µM, partner dose 2 µM) | 45.9 | 156 | 98.4 | 69.6 | 80 | 28.6
17 | Cn1nnc2c(C(N)=O)ncn2c1=O [temozolomide] + O=C(Nc1ccccc1)c1cc([N+](=O)[O-])ccc1Cl [GW9662] (first compound 2 µM, partner dose 2 µM) | 67.3 | 60.7 | 130 | 82.6 | 72.1 | 146
18 | OCc1c[nH]c2ccccc12 [Indole-3-carbinol] + COC(=O)c1sccc1S(=O)(=O)Nc1ccc(Nc2ccccc2)cc1OC [GSK0660] (first compound 0.8 µM, partner dose 1 µM) | 218 | 169 | 79.6 | 72.3 | 64.2 | 89.9
19 | Cc1nc(Nc2ncc(C(=O)Nc3c(C)cccc3Cl)s2)cc(N2CCN(CCO)CC2)n1 [dasatanib] + Cc1cc(N2CCOCC2)cc2[nH]c(-c3c(NC[C@@H](O)c4cccc(Cl)c4)cc[nH]c3=O)nc12 [BMS536924] (first compound 0.004 µM, partner dose 0.2 µM) | 195 | 453 | 230 | 29.4 | 115 | 89.3
20 | CO[C@@H]1[C@H](N(C)C(=O)c2ccccc2)C[C@H]2O[C@]1(C)n1c3ccccc3c3c4c(c5c6ccccc6n2c5c31)C(=O)NC4 [Midostaurin] + OCCn1cc(-c2cnc3nnn(Cc4ccc5ncccc5c4)c3n2)cn1 [PF04217903] (first compound 0.08 µM, partner dose 1 µM) | 45.6 | 95.9 | 91.9 | 33.1 | 174 | 102
21 | Cc1ccc(NC(=O)c2cccc(N(C)C)c2)cc1NC(=O)c1ccc(O)cc1 + COc1ccc2c(c1)CCC1C2CCC2(C)C(NCCCCCCN3C(=O)C=CC3=O)CCC12 [U73122] (first compound 2 µM, partner dose 0.4 µM) | 228 | 73.5 | 110 | 98.5 | 90.4 | 140
22 | Cn1nnc2c(C(N)=O)ncn2c1=O [temozolomide] + COc1ccc2c(c1)CCC1C2CCC2(C)C(NCCCCCCN3C(=O)C=CC3=O)CCC12 [U73122] (first compound 2 µM, partner dose 0.4 µM) | 204 | 192 | 126 | 37.7 | 103 | 60.4
23 | OCCn1cc(-c2cnc3nnn(Cc4ccc5ncccc5c4)c3n2)cn1 + COC(=O)c1sccc1S(=O)(=O)Nc1ccc(Nc2ccccc2)cc1OC [GSK0660] (first compound 1 µM, partner dose 1 µM) | 115 | 45.6 | 99 | 70.5 | 78.6 | 60.9
24 | OCCn1cc(-c2cnc3nnn(Cc4ccc5ncccc5c4)c3n2)cn1 + N#Cc1c(O)c2c(-c3ccc(-c4ccccc4O)cc3)csc2[nH]c1=O [A769662] (first compound 1 µM, partner dose 2 µM) | 95.7 | 99.1 | 115 | 140 | 79.1 | 42.6
25 | C=CCNC1=C2C[C@@H](C)C[C@H](OC)[C@H](O)[C@@H](C)/C=C(\C)[C@H](OC(N)=O)[C@@H](OC)/C=C\C=C(/C)C(=O)NC(=CC1=O)C2=O [Tanespimycin] + O=S(=O)(c1ccccc1)N(CC(F)(F)F)c1ccc(C(O)(C(F)(F)F)C(F)(F)F)cc1 [T0901317] (first compound 0.002 µM, partner dose 1.4 µM) | 138 | 178 | 117 | 83.1 | 89.5 | 152

Numbers 13 through 14, reprinted for reference:
Row | Compound | cleaved PARP positive nuclei fraction [1] [%] | cleaved PARP positive nuclei fraction [2] [%] | cleaved PARP positive nuclei fraction [3] [%] | cleaved PARP positive nuclei fraction [4] [%] | cleaved PARP positive nuclei fraction [5] [%] | cleaved PARP positive nuclei fraction [6] [%]
13 | Cc1cc(N2CCOCC2)cc2[nH]c(-c3c(NC[C@@H](O)c4cccc(Cl)c4)cc[nH]c3=O)nc12 + COc1cc2c(Oc3ccc4[nH]c(C)cc4c3F)ncnc2cc1OCCCN1CCCC1 [cediranib] (first compound 0.2 µM, partner dose 0.4 µM) | 72.6 | 87.2 | 125 | 68.4 | 68.1 | 43.7
14 | Clc1ccc(Nc2nnc(Cc3ccncc3)c3ccccc23)cc1 [vatalanib] + O=S(=O)(c1ccccc1)N(CC(F)(F)F)c1ccc(C(O)(C(F)(F)F)C(F)(F)F)cc1 [T0901317] (first compound 2 µM, partner dose 1.4 µM) | 183 | 60.9 | 132 | 62 | 83.1 | 47.5
